Experimental data: PubChem BioAssay AID1259254 (NCATS, 2017)

Purpose: 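Genome-wide screen for genes that prevent DNA re-replication in cancer cells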 (primary screen)
Cells: human HCT116 colorectal cancer cells
Knock-down reagent: single siRNA against human genes
Duration: 3 days
Detection: 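Nuclei stained with Hoechst and imaged; cell-cycle phase assigned by DNA content; G2 share scaled per plate, non-targeting siRNA 0%, GMNN siRNA 100%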
Direction: G2 robust z-score: higher = more G2 cells, more excess DNA replication
Active means: 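Active siRNAs have a G2 robust z of 5 or more median absolute deviations over the median, which in these data means about 38% or higher of GMNN control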
The whole screen tested about 59,000 reagents; shown is a random part of them. About 1,550 of all reagents (2.6%) count as active. 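G2 share is only a proxy for re-replication; each gene was hit by three separate siRNAs, and active genes were retested.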 The numbers tell different reagents against one gene apart. Further read-outs or replicates are left out here. Reagent sequences are not shown. Not given: the amount of reagent.

gene | reagent | G2 robust z-score | Call
FRS3 (fibroblast growth factor receptor substrate 3) | 1 | -1.58 | inactive
FRS3 (fibroblast growth factor receptor substrate 3) | 2 | 0.654 | inactive
FRS3 (fibroblast growth factor receptor substrate 3) | 3 | -0.565 | inactive
NUDT12 (nudix hydrolase 12) | 1 | 3.42 | inactive
NUDT12 (nudix hydrolase 12) | 2 | -0.0645 | inactive
NUDT12 (nudix hydrolase 12) | 3 | -0.32 | inactive
ADGRG2 (adhesion G protein-coupled receptor G2) | 1 | -0.66 | inactive
ADGRG2 (adhesion G protein-coupled receptor G2) | 2 | -0.672 | inactive
ADGRG2 (adhesion G protein-coupled receptor G2) | 3 | 0.72 | inactive
HADHA | 1 | -0.375 | inactive
HADHA | 2 | -0.151 | inactive
HADHA | 3 | 0.591 | inactive
LRRIQ4 (leucine rich repeats and IQ motif containing 4) | 1 | 0.633 | inactive
LRRIQ4 (leucine rich repeats and IQ motif containing 4) | 2 | 4.06 | inactive
LRRIQ4 (leucine rich repeats and IQ motif containing 4) | 3 | -0.83 | inactive
RAB33A (RAB33A, member RAS oncogene family) | 1 | -0.745 | inactive
RAB33A (RAB33A, member RAS oncogene family) | 2 | -0.485 | inactive
RAB33A (RAB33A, member RAS oncogene family) | 3 | 1.51 | inactive
RNFT1 (ring finger protein, transmembrane 1) | 1 | 6.46 | active
RNFT1 (ring finger protein, transmembrane 1) | 2 | 0.372 | inactive
RNFT1 (ring finger protein, transmembrane 1) | 3 | -0.718 | inactive
H1-1 (H1.1 linker histone, cluster member) | 1 | -0.544 | inactive
H1-1 (H1.1 linker histone, cluster member) | 2 | -0.84 | inactive
H1-1 (H1.1 linker histone, cluster member) | 3 | 1.18 | inactive
TM4SF5 (transmembrane 4 L six family member 5) | 1 | -0.0661 | inactive
TM4SF5 (transmembrane 4 L six family member 5) | 2 | 0.159 | inactive
TM4SF5 (transmembrane 4 L six family member 5) | 3 | 0.0409 | inactive
BARX2 (BARX homeobox 2) | 1 | -0.0296 | inactive
BARX2 (BARX homeobox 2) | 2 | -0.73 | inactive
BARX2 (BARX homeobox 2) | 3 | -0.689 | inactive

Looked up above.
LRRIQ4 (leucine rich repeats and IQ motif containing 4) #3, G2 robust z-score: -0.83
Under “Call”, RNFT1 (ring finger protein, transmembrane 1) #1 has active
For “G2 robust z-score”, ADGRG2 (adhesion G protein-coupled receptor G2) #2 has -0.672
